Measurements: the supplement of paper PMC4604168 (melanoma cell lines)
Some of the results follow. Many values rest on one well or one pass, so single values are uncertain.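 Cells were imaged in 1,536-well plates, and nuclei stained with an antibody against cleaved PARP were counted against all DNA-stained nuclei to give the apoptosis fraction. Screening doses were chosen to leave most cells alive, and resting and induced cleaved-PARP levels differ strongly between cell lines.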

Each compound was assayed on CBRC016 (line from a melanoma biopsy) (assay: cleaved PARP positive nuclei fraction relative to DMSO control; melanoma cells; higher = more apoptosis). Conditions: library dose: low library concentration; 72 h.
`N.N.[Cl][Pt][Cl]` [cisplatin] + Cn1nnc2c(C(N)=O)ncn2c1=O [temozolomide] (first compound 1.6 µM, partner dose 2 µM) was tested, and the “cleaved PARP positive nuclei fraction” value was 221%. For `Cn1cc(C2=C(c3cn(C4CCN(Cc5ccccn5)CC4)c4ccccc34)C(=O)NC2=O)c2ccccc21` [Enzastaurin] + C=CCNC1=C2C[C@@H](C)C[C@H](OC)[C@H](O)[C@@H](C)/C=C(\C)[C@H](OC(N)=O)[C@@H](OC)/C=C\C=C(/C)C(=O)NC(=CC1=O)C2=O [Tanespimycin] (first compound 0.8 µM, partner dose 0.002 µM), the “cleaved PARP positive nuclei fraction” value was 182%. In the case of `CS(=O)(=O)c1ccc(C(=O)Nc2ccc(Cl)c(-c3ccccn3)c2)c(Cl)c1` [vismodegib] + C[As](C)SC[C@H](NC(=O)CC[C@H](N)C(=O)O)C(=O)NCC(=O)O [Darinaparsin] (first compound 1 µM, partner dose 0.4 µM), the “cleaved PARP positive nuclei fraction” value was 29.4%. For `CS(=O)(=O)c1ccc(C(=O)Nc2ccc(Cl)c(-c3ccccn3)c2)c(Cl)c1` [vismodegib] + N.N.[Cl][Pt][Cl] [cisplatin] (first compound 1 µM, partner dose 1.6 µM), the “cleaved PARP positive nuclei fraction” value was 94.2%. `CCCS(=O)(=O)Nc1ccc(F)c(C(=O)c2c[nH]c3ncc(Cl)cc23)c1F` + C[As](C)SC[C@H](NC(=O)CC[C@H](N)C(=O)O)C(=O)NCC(=O)O [Darinaparsin] (first compound 0.08 µM, partner dose 0.4 µM) was tested, and the “cleaved PARP positive nuclei fraction” value was 130%. `C[C@]12O[C@H](C[C@]1(O)CO)n1c3ccccc3c3c4c(c5c6ccccc6n2c5c31)CNC4=O` [Lestaurtinib] + C=CCNC1=C2C[C@@H](C)C[C@H](OC)[C@H](O)[C@@H](C)/C=C(\C)[C@H](OC(N)=O)[C@@H](OC)/C=C\C=C(/C)C(=O)NC(=CC1=O)C2=O [Tanespimycin] (first compound 0.004 µM, partner dose 0.002 µM) was tested, and the “cleaved PARP positive nuclei fraction” value was 155%. `C[C@]12O[C@H](C[C@]1(O)CO)n1c3ccccc3c3c4c(c5c6ccccc6n2c5c31)CNC4=O` [Lestaurtinib] + O=C(O)[C@@H]1[O][Sb](=[O])([O][Sb]2(=[O])[O][C@H]([C@H](O)CO)[C@H](O)[C@H](C(=O)O)[O]2)[O][C@H]([C@H](O)CO)[C@@H]1O [stibogluconate] (first compound 0.004 µM, partner dose 2 µM) was tested, and the “cleaved PARP positive nuclei fraction” value was 106%. `Cn1cc(C2=C(c3cn(C4CCN(Cc5ccccn5)CC4)c4ccccc34)C(=O)NC2=O)c2ccccc21` [Enzastaurin] + C=C(c1ccc(C(=O)O)cc1)c1cc2c(cc1C)C(C)(C)CCC2(C)C [Bexarotene] (first compound 0.8 µM, partner dose 2 µM) was tested, and the “cleaved PARP positive nuclei fraction” value was 130%.

These compounds were tested on CBRC017 (line from a melanoma biopsy) in the same assay as above. Conditions: library dose: low library concentration; 72 h.
In the case of `CCCCCCCCCCCCCCCCCCOP(=O)([O-])OC1CC[N+](C)(C)CC1` [Perifosine] + C[As](C)SC[C@H](NC(=O)CC[C@H](N)C(=O)O)C(=O)NCC(=O)O [Darinaparsin] (first compound 0.4 µM, partner dose 0.4 µM), the “cleaved PARP positive nuclei fraction” value was 130%. In the case of `CC(=O)O[C@@]12CO[C@@H]1C[C@H](O)[C@@]1(C)C(=O)[C@H](O)C3=C(C)[C@@H](OC(=O)[C@H](O)[C@@H](NC(=O)OC(C)(C)C)c4ccccc4)C[C@@](O)([C@@H](OC(=O)c4ccccc4)[C@H]21)C3(C)C` [Docetaxel] + N.N.[Cl][Pt][Cl] [cisplatin] (first compound 0.0001 µM, partner dose 1.6 µM), the “cleaved PARP positive nuclei fraction” value was 170%. `N.N.[Cl][Pt][Cl]` [cisplatin] + C#Cc1cccc(Nc2ncnc3cc(OCCOC)c(OCCOC)cc23)c1 [erlotinib] (first compound 1.6 µM, partner dose 0.8 µM) was tested, and the “cleaved PARP positive nuclei fraction” value was 132%. `C[As](C)SC[C@H](NC(=O)CC[C@H](N)C(=O)O)C(=O)NCC(=O)O` [Darinaparsin] + Cc1nc(Nc2ncc(C(=O)Nc3c(C)cccc3Cl)s2)cc(N2CCN(CCO)CC2)n1 [dasatanib] (first compound 0.4 µM, partner dose 0.004 µM) was tested, and the “cleaved PARP positive nuclei fraction” value was 98.1%. With `Cn1sc(=O)n(Cc2ccccc2)c1=O` + C[As](C)SC[C@H](NC(=O)CC[C@H](N)C(=O)O)C(=O)NCC(=O)O [Darinaparsin] (first compound 0.4 µM, partner dose 0.4 µM) the “cleaved PARP positive nuclei fraction” value was 90.4%. In the case of `C[C@]12O[C@H](C[C@]1(O)CO)n1c3ccccc3c3c4c(c5c6ccccc6n2c5c31)CNC4=O` [Lestaurtinib] + C[C@]1(c2nc3c(C(N)=O)cccc3[nH]2)CCCN1 [Veliparib] (first compound 0.004 µM, partner dose 1.4 µM), the “cleaved PARP positive nuclei fraction” value was 82.6%. For `Cn1cc(C2=C(c3cn(C4CCN(Cc5ccccn5)CC4)c4ccccc34)C(=O)NC2=O)c2ccccc21` [Enzastaurin] + CN1CCN(c2ccc3nc(-c4c(N)c5c(F)cccc5[nH]c4=O)[nH]c3c2)CC1 [Dovitinib] (first compound 0.8 µM, partner dose 0.1 µM), the “cleaved PARP positive nuclei fraction” value was 114%. In the case of `CCCCCCCCc1ccc(CCC(N)(CO)CO)cc1` [fingolimod] + N.N.[Cl][Pt][Cl] [cisplatin] (first compound 2 µM, partner dose 1.6 µM), the “cleaved PARP positive nuclei fraction” value was 114%. `Cn1cc(C2=C(c3cn(C4CCN(Cc5ccccn5)CC4)c4ccccc34)C(=O)NC2=O)c2ccccc21` [Enzastaurin] + CCCS(=O)(=O)Nc1ccc(F)c(C(=O)c2c[nH]c3ncc(Cl)cc23)c1F [PLX4720] (first compound 0.8 µM, partner dose 0.08 µM) was tested, and the “cleaved PARP positive nuclei fraction” value was 118%. `CC1(C)CCC(c2ccc(Cl)cc2)=C(CN2CCN(c3ccc(C(=O)NS(=O)(=O)c4ccc(N[C@H](CCN5CCOCC5)CSc5ccccc5)c(S(=O)(=O)C(F)(F)F)c4)cc3)CC2)C1` + N.N.[Cl][Pt][Cl] [cisplatin] (first compound 0.4 µM, partner dose 1.6 µM) was tested, and the “cleaved PARP positive nuclei fraction” value was 243%. `Cn1cc(C2=C(c3cn(C4CCN(Cc5ccccn5)CC4)c4ccccc34)C(=O)NC2=O)c2ccccc21` [Enzastaurin] + Nc1ccn([C@@H]2O[C@H](CO)[C@@H](O)C2(F)F)c(=O)n1 [gemcitabine] (first compound 0.8 µM, partner dose 0.0004 µM) was tested, and the “cleaved PARP positive nuclei fraction” value was 94.3%. With `N.N.[Cl][Pt][Cl]` [cisplatin] + Nc1ncn([C@H]2C[C@H](O)[C@@H](CO)O2)c(=O)n1 [decitabine] (first compound 1.6 µM, partner dose 0.1 µM) the “cleaved PARP positive nuclei fraction” value was 194%. For `Cn1sc(=O)n(Cc2ccccc2)c1=O` + C[C@]12O[C@H](C[C@]1(O)CO)n1c3ccccc3c3c4c(c5c6ccccc6n2c5c31)CNC4=O [Lestaurtinib] (first compound 0.4 µM, partner dose 0.004 µM), the “cleaved PARP positive nuclei fraction” value was 102%. With `Cn1cc(C2=C(c3cn(C4CCN(Cc5ccccn5)CC4)c4ccccc34)C(=O)NC2=O)c2ccccc21` [Enzastaurin] + COCC[n+]1c2c(n(Cc3cnccn3)c1C)C(=O)c1ccccc1C2=O [YM155] (first compound 0.8 µM, partner dose 0.0004 µM) the “cleaved PARP positive nuclei fraction” value was 109%. For `C[C@]1(O)C[C@@H](c2nc(-c3ccc4ccc(-c5ccccc5)nc4c3)c3c(N)nccn32)C1` + N.N.[Cl][Pt][Cl] [cisplatin] (first compound 0.4 µM, partner dose 1.6 µM), the “cleaved PARP positive nuclei fraction” value was 149%. With `C[C@]12O[C@H](C[C@]1(O)CO)n1c3ccccc3c3c4c(c5c6ccccc6n2c5c31)CNC4=O` [Lestaurtinib] + CC(C)C[C@H](NC(=O)[C@H](Cc1ccccc1)NC(=O)c1cnccn1)B(O)O [Bortezomib] (first compound 0.004 µM, partner dose 0.001 µM) the “cleaved PARP positive nuclei fraction” value was 255%. With `COc1ccc(C2=N[C@@H](c3ccc(Cl)cc3)[C@@H](c3ccc(Cl)cc3)N2C(=O)N2CCNC(=O)C2)c(OC(C)C)c1` [Nutlin-3] + C[C@]12O[C@H](C[C@]1(O)CO)n1c3ccccc3c3c4c(c5c6ccccc6n2c5c31)CNC4=O [Lestaurtinib] (first compound 0.1 µM, partner dose 0.004 µM) the “cleaved PARP positive nuclei fraction” value was 122%. For `C=CCNC1=C2C[C@@H](C)C[C@H](OC)[C@H](O)[C@@H](C)/C=C(\C)[C@H](OC(N)=O)[C@@H](OC)/C=C\C=C(/C)C(=O)NC(=CC1=O)C2=O` [Tanespimycin] + C[As](C)SC[C@H](NC(=O)CC[C@H](N)C(=O)O)C(=O)NCC(=O)O [Darinaparsin] (first compound 0.002 µM, partner dose 0.4 µM), the “cleaved PARP positive nuclei fraction” value was 95.1%. With `COc1ccc(C2=N[C@@H](c3ccc(Cl)cc3)[C@@H](c3ccc(Cl)cc3)N2C(=O)N2CCNC(=O)C2)c(OC(C)C)c1` [Nutlin-3] + C[As](C)SC[C@H](NC(=O)CC[C@H](N)C(=O)O)C(=O)NCC(=O)O [Darinaparsin] (first compound 0.1 µM, partner dose 0.4 µM) the “cleaved PARP positive nuclei fraction” value was 86.8%. In the case of `Cn1cc(C2=C(c3cn(C4CCN(Cc5ccccn5)CC4)c4ccccc34)C(=O)NC2=O)c2ccccc21` [Enzastaurin] + CNC(=O)c1cc(Oc2ccc(NC(=O)Nc3ccc(Cl)c(C(F)(F)F)c3)cc2)ccn1 [sorafenib] (first compound 0.8 µM, partner dose 0.4 µM), the “cleaved PARP positive nuclei fraction” value was 111%. In the case of `C[C@]12O[C@H](C[C@]1(O)CO)n1c3ccccc3c3c4c(c5c6ccccc6n2c5c31)CNC4=O` [Lestaurtinib] + CO[C@H]1C[C@@H]2CC[C@@H](C)[C@@](O)(O2)C(=O)C(=O)N2CCCC[C@H]2C(=O)O[C@H]([C@H](C)C[C@@H]2CC[C@@H](OCCO)[C@H](OC)C2)CC(=O)[C@H](C)/C=C(\C)[C@@H](O)[C@@H](OC)C(=O)[C@H](C)C[C@H](C)/C=C/C=C/C=C/1C [everolimus] (first compound 0.004 µM, partner dose 0.02 µM), the “cleaved PARP positive nuclei fraction” value was 111%.
